Positions count from the first letter of the chain named. Results are given in words; binding and its absence hold for the method and conditions named. Some results given as binding are weak or reduced against the parent protein; the word gives no strength. Where a sequence is shown, tags or fusion partners need not be part of it.

By UniProt entry, the sequences of proteins in these tests, tags left out. Residues count along the entry.
UniProt P20138, residues 18-259: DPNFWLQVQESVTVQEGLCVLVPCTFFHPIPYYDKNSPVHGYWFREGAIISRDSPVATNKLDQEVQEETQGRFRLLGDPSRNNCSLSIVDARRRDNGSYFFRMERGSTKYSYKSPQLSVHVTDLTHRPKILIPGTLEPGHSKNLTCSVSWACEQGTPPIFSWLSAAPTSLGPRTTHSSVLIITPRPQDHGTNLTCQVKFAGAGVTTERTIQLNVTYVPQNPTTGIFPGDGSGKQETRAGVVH

This is an account of results in patent US20230192839A1, “ANTIBODIES HAVING CONDITIONAL AFFINITY AND METHODS OF USE THEREOF” (PFIZER INC., priority 2017, published 2023).

For experiment [1], the target named is human epidermal growth factor receptor antigen (human) (UniProt P00533). Put plainly: SPR (Biacore T200), 37 C, scFv-Fc, 0 and 10 uM MTX.
For experiment [2], the target named is human CD33 antigen (human) (UniProt P20138). Description: SPR (Biacore T200), 37 C, scFv-Fc, 0 and 10 uM MTX. In general terms: In SPR one partner is held on a chip, and binding of the other changes the refractive index at the surface.

B1: P01_B06 scFv-Fc fusion (scFv, V domains shown)
VH: QVQLVESGGGLVQAGGSLRLSCAASRRSSRSWAMHWVRQAPGKGLEWVAVISYDGRLKYYADSVKGRFTISRDNAEYLVYLQMNSLRAEDTAVYYCAADTSMFASYDPMDVWGQGTLVTVSS
VL: QSVLTQPPSASGTPGQRVTISCSGSSSNIGRNYVNWYQQLPGTAPKLLIYRDDHRPSGVPDRFSGSKSGTSASLAISGLRSEDEADYYCASWDDTLSGWVFGTGTKLTVL
On to B1, for which, in experiment [1], the binding entry was “binds”.

B2: P02_C02 scFv-Fc fusion (scFv, V domains shown)
VH: QVQLVESGGGLVQAGGSLRLSCAASRRSSRSWAMHWVRQAPGKGLEWVAVISYDGRLKYYADSVKGRFTISRDNAEYLVYLQMNSLRAEDTAVYYCAAEGGMGLDPWGQGTLVTVSS
VL: DIQMTQSPSSLSASVGDRVTITCRASQTISSYLNWYQQKPGKAPKLLIYAASNLHSGVPSRFSGSGSGTDFTLTISSLQPEDFATYYCQQSYSSGTFGQGTKVEIK
Consider B2, for which, in experiment [2], the binding result was “binds”.

B3: P01_B02 scFv-Fc fusion (scFv, V domains shown)
VH: QVQLVESGGGLVQAGGSLRLSCAASRRSSRSWAMHWVRQAPGKGLEWVAVISYDGRLKYYADSVKGRFTISRDNAEYLVYLQMNSLRAEDTAVYYCAAADWYSGGGDALDIWGQGTLVTVSS
VL: B2 VL with S30Y, S31N, A50G, H55Q, S91T, G95P
Take B3: the binding result in experiment [2] is given as “binds”.
